The nature of the assay: qHTS Assay for Modulators of Lamin A Splicing. The conditions noted are these: HeLa LMNA splicing GFP/RFP minigene ratio, 48 h. The essentials: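 S3 HeLa stable clones carrying a lamin A-EGFP splicing minigene plus DsRed2 were seeded at 600 cells/well in Opti-MEM with 2% FBS, pin-dosed and incubated 48 h at 37°C. Acumen cytometry (488 nm) gave the GFP/RFP total-intensity ratio.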
A general note: In qHTS, concentration-response curves come from the screen itself.

Setting [1] is: measured here: GFP splicing reporter channel.
[2] abbreviates: measured here: RFP viability control channel.

Some of the results follow. Further columns of the screen follow, without active or inactive calls. Compounds called inactive in the main read-out are mostly missing here. The note in brackets gives the kind of curve behind each potency; many fits are weak.

On to `COc1cc(OC)cc(C(=O)NC2CCN(C(=O)N3c4ccccc4Sc4ccccc43)CC2)c1`, for which the AC50 (usually the midpoint of the concentration-response curve, whichever way the signal moves) reads like this: under setting [1], 20 µM [rising, single point]; under setting [2], 35.5 µM [rising, single point].
In the case of `CCOC(=O)c1sc(NC(=O)c2ccccc2F)c(C(N)=O)c1C`, the half-maximal activity concentration (AC50) under setting [1] is 0.0891 µM [rising, full curve, poor fit] and the AC50 under setting [2] is 0.1 µM [rising, single point].
As to `N#CC(C#N)=C1C=CC=CN1/C(=C\c1ccco1)C(=O)c1ccc(-c2ccccc2)cc1`, the AC50 reads like this: under setting [1], 25.1 µM [falling, single point]; under setting [2], 20 µM [rising, partial curve, poor fit].
Turning to `CCN1CCC[C@H]1CNC(=O)c1c(OC)ccc(Br)c1OC`, the AC50 under setting [1] was 12.6 µM [falling, single point].
`COc1cccc(OC)c1C(=O)NC1C(=O)N2C1SC(C)(C)C2C(=O)O` (centres undefined): the AC50 under setting [2] is 7.08 µM [falling, partial curve].
Turning to `CC1(C)CC(=O)C(C(=S)Nc2ccccc2)=C(NC2CC(C)(C)NC(C)(C)C2)C1`, the half-maximal activity concentration (AC50) under setting [1] was 35.5 µM [falling, single point].
As to `O=C(Nc1ccc(Cl)c(Cl)c1)Nc1nnc(CC2=CCCCC2)s1`, the AC50 under setting [2] is 3.16 µM [rising, full curve, poor fit].
In the case of `COc1ccc(/C=C/C(=O)N2c3ccccc3Sc3ccc(C(F)(F)F)cc32)cc1`, the AC50 under setting [2] was 22.4 µM [rising, partial curve, poor fit].
Still for that read-out and setting: then `CCOC(=O)c1cccc(NC(=O)CCc2c(C)nn(-c3ccc(N4CCCCC4)nn3)c2C)c1`, with 0.0398 µM [falling, full curve, poor fit]; and `O=C(NCC1OCCc2ccccc21)c1ccc(NC(=O)c2ccccc2Cl)cc1` (centres undefined), with 10 µM [rising, partial curve, poor fit].
Regarding `COc1ccc(Cn2ccc3nc(C)c(C(=O)N4CCN(c5ccc(F)cc5)CC4)cc3c2=O)cc1`, the AC50 by setting is: under setting [1], 2.51 µM [falling, partial curve]; under setting [2], 0.00891 µM [falling, full curve, poor fit].
As for `O=C(NCc1ccco1)c1nc(-c2ccccc2)n(-c2ccccc2)n1`, the AC50 is, setting by setting: under setting [1], 5.62 µM [rising, partial curve, poor fit]; under setting [2], 5.62 µM [rising, partial curve].
Take `Cc1cc(Cl)ccc1NC(=S)NCc1ccccc1Cl`: the AC50 runs as follows: under setting [1], 31.6 µM [rising, single point]; under setting [2], 31.6 µM [rising, single point].
In the case of `CCOC(=O)c1ccc2ncc(C(=O)OCC)c(NCCCN3CCOCC3)c2c1`, under setting [1], the AC50 is 17.8 µM [rising, partial curve].
On to `c1ccc(CSc2ncn[nH]2)nc1`, for which the half-maximal activity concentration (AC50) under setting [1] is 35.5 µM [rising, single point].
Consider `COC(=O)c1ccc2ccn(CC(=O)NC3CCCCC3)c2c1`, for which the half-maximal activity concentration (AC50) under setting [2] is 22.4 µM [falling, partial curve, poor fit].
Take `Cc1cccc(OCC(=O)NCC(=O)N/N=C/c2cc(Br)ccc2OCc2ccccc2)c1`: the AC50 is 35.5 µM [rising, single point] under setting [1] and 35.5 µM [rising, single point] under setting [2].
Regarding `Oc1ccc(OCc2ccccc2)cc1`, the half-maximal activity concentration (AC50) is 1.41 µM [falling, full curve] under setting [1] and 10 µM [rising, partial curve] under setting [2].
With `COc1ccc(S(=O)(=O)N(CC(=O)Nc2ccc(S(=O)(=O)N3CCOCC3)cc2)c2ccccc2)cc1`, the AC50 under setting [2] is 35.5 µM [rising, single point].
Take `Cn1nc(C(C)(C)C)cc1NC(=O)Nc1cc(Cl)cc(Cl)c1`: the AC50 under setting [1] was 3.98 µM [rising, partial curve, poor fit] and the AC50 under setting [2] is 11.2 µM [rising, partial curve].
Consider `CCC(=O)Nc1cccc(NC(=O)CSc2nnc(C3CC3)n2C)c1`, for which, under setting [1], the AC50 was 15.8 µM [rising, single point].
Regarding `CCCOc1ccc2c3c(c(=O)oc2c1OCCC)CCC3`, the AC50 runs as follows: under setting [1], 15.8 µM [rising, single point]; under setting [2], 28.2 µM [rising, single point].
For `COc1cccc(C(=O)Nc2ccc3nc(N4CCOCC4)cc(C)c3c2)c1`, the AC50 under setting [2] is 12.6 µM [rising, partial curve, poor fit].
As to `Cc1cc(C)nc(N/N=C/c2ccccc2OCc2ccccc2)n1`, the AC50 under setting [2] is 8.91 µM [rising, partial curve].
With `O=C(Nc1ccc(S(=O)(=O)Nc2nccs2)cc1)c1ccc(F)c(S(=O)(=O)N2CCOCC2)c1`, under setting [2], the AC50 is 0.708 µM [rising, full curve, poor fit].
For `COc1ccc(NC(=O)c2oc3ccccc3c2C)c(OC)c1`, the AC50 is, setting by setting: under setting [1], 11.2 µM [falling, single point]; under setting [2], 12.6 µM [falling, single point].
Take `CCN(CC)C(=O)CCc1nnc(CCc2c[nH]c3ccccc23)o1`: under setting [2], the AC50 was 0.0178 µM [falling, full curve, poor fit].
Still for that read-out and setting: to `CCOC(=O)CN1C(=O)N(c2ccc(C)c(C)c2)S(=O)(=O)c2ccccc21` belongs 3.55 µM [falling, partial curve].
As for `Cc1ccccc1OCCNC(=O)/C=C/c1ccc([N+](=O)[O-])cc1`, the AC50 under setting [1] was 0.794 µM [falling, single point].
On to `Brc1ccc(-c2nn3c(-c4ccccn4)nnc3s2)o1`, for which, under setting [2], the AC50 is 15.8 µM [rising, single point].
Regarding `C/C(=N\Nc1ccccc1)c1c(O)cc(C)oc1=O`, the AC50 under setting [1] was 3.98 µM [rising, full curve, poor fit].
As for `Cc1c(Cc2ccccc2)sc(/N=C/c2ccc3ccccc3c2)c1C(N)=O`, under setting [2], the AC50 is 3.98 µM [rising, full curve].
Take `CC1=CC2=NC(=O)/C(=C\c3cccn3CCOc3ccccc3)C(=N)N2O1`: the half-maximal activity concentration (AC50) under setting [2] was 12.6 µM [rising, partial curve].
On the same count and under the same terms, then `COc1cc(/C=C/c2ccc3cccc(OC)c3n2)c(OC(C)=O)c([N+](=O)[O-])c1`, with 3.98 µM [rising, single point]; and `O=[N+]([O-])c1ccc(Nc2ccccc2)nc1`, with 35.5 µM [rising, single point].
Take `COc1ccc2[nH]c3c(NCCN4CCCCC4)ncnc3c2c1`: the AC50 runs as follows: under setting [1], 7.94 µM [rising, partial curve, poor fit]; under setting [2], 10 µM [rising, partial curve].
`CCOc1ccccc1NC(=S)NC(=O)CCCOc1ccc(Cl)cc1Cl`: the half-maximal activity concentration (AC50) is, setting by setting: under setting [1], 35.5 µM [rising, single point]; under setting [2], 14.1 µM [rising, single point].
With `O=C(CSc1nc(O)c(C2CCCCC2)c(=O)[nH]1)Nc1ccc(Cl)cc1`, the AC50 under setting [1] is 17.8 µM [rising, partial curve].
As for `Cc1ccc(NC(=S)N(CCN2CCOCC2)Cc2cc3cc4c(cc3[nH]c2=O)OCO4)cc1`, the concentration at half-maximal activity (AC50) under setting [1] is 0.0224 µM [rising, full curve, poor fit].
`CC(C)(C)n1nc2c(c1NC(=O)COc1ccc(Cl)cc1)CSC2`: the AC50 is, setting by setting: under setting [1], 25.1 µM [rising, single point]; under setting [2], 31.6 µM [rising, single point].
For `c1ccc(N2CCOCC2)c(Nc2nc3ccccc3n3cnnc23)c1`, the AC50 under setting [1] is 17.8 µM [rising, single point].
In the case of `CC1(C)C(C=C(Cl)Cl)C1C(=O)Nc1ccc([N+](=O)[O-])cc1` (centres undefined), under setting [2], the AC50 was 35.5 µM [rising, single point].
With `N#C/C(=N\Nc1c(Cl)cccc1Cl)C(=O)NN`, the AC50 reads like this: under setting [1], 17.8 µM [falling, single point]; under setting [2], 14.1 µM [falling, partial curve, poor fit].
Regarding `CSc1nc(-c2ccco2)nn1C(=O)c1ccccc1`, the AC50 under setting [2] was 0.00794 µM [falling, full curve, poor fit].
On the same count and under the same terms, to `C=CCNC1=C(Cl)C(=O)c2ccccc2C1=O` belongs 22.4 µM [rising, single point].
As to `O=C(Nc1ccccc1)OC1CCC2CC1CCC2OC(=O)Nc1ccccc1` (centres undefined), the concentration at half-maximal activity (AC50) runs as follows: under setting [1], 8.91 µM [rising, partial curve]; under setting [2], 14.1 µM [rising, partial curve].
As for `O=C(Oc1ccc(F)cc1C(=O)/C=C/c1cccs1)c1cccc([N+](=O)[O-])c1`, the AC50 under setting [1] is 35.5 µM [rising, single point].
For the molecule `COc1ccc(/C=C2/SC(c3ccc(C)cc3)=NC2=O)cc1OC`, the AC50 under setting [2] was 35.5 µM [rising, single point].
Turning to `CN1C(=O)c2ccccc2Sc2ccc(NC(=O)Cc3ccc(Cl)cc3)cc21`, under setting [1], the AC50 is 2.82 µM [falling, partial curve, poor fit].
As for `CC(C)n1cc(/C=N/NC(=O)COc2cccc3cccnc23)c2ccccc21`, the AC50 under setting [2] is 7.94 µM [rising, partial curve, poor fit].
`Cc1c(C(=O)OCc2ccccc2)[nH]c2c1C(=O)CC(c1ccco1)C2` (centres undefined): the AC50 under setting [2] was 0.398 µM [rising, full curve].
On the same count and under the same terms, to `O=C(CNC(=O)C12CC3CC(CC(C3)C1)C2)N1CCN(S(=O)(=O)c2cccs2)CC1` belongs 20 µM [rising, partial curve, poor fit].
On to `Cc1cc(C)n(-c2ncnc3ccccc23)n1`, for which the AC50 under setting [2] was 0.2 µM [falling, full curve].
For the molecule `N=c1ccn2c(n1)O[C@H]1[C@@H](O)[C@@H](CO)O[C@H]12`, the half-maximal activity concentration (AC50) under setting [1] is 0.447 µM [falling, full curve] and the AC50 under setting [2] is 0.0631 µM [rising, full curve, poor fit].
As to `CCOC(=O)c1cccc(NC(=O)C2COc3ccc(OC)cc3C2)c1` (centres undefined), the concentration at half-maximal activity (AC50) under setting [1] was 7.94 µM [falling, partial curve, poor fit].
With `CC1=CC(C)(C)Nc2ccc(OC(=O)C(C)N3C(=O)c4ccccc4C3=O)cc21` (centres undefined), the AC50 runs as follows: under setting [1], 35.5 µM [falling, single point]; under setting [2], 2.51 µM [falling, partial curve].

The values are drawn from PubChem BioAssay AID1487 (National Center for Advancing Translational Sciences (NCATS), 2009).
